Source: US5905036A, “Characterization of organic contaminants and assessment of remediation performance in subsurface formations” (Board Of Regents, The University of Texas System, priority 1997, dated 1999)

Experiment: Partitioning tracer column experiment, PCE-contaminated water-saturated Ottawa sand (Example 1)
Type: physicochemical
Procedure: A soil column experiment was performed to illustrate the use of partitioning tracers to detect DNAPL in a saturated zone. A Kontes preparative chromatography column made of borosilicate glass (4.8 cm ID) was packed with-mesh sizes of 60 to 200 Ottawa sand and saturated with water at 23° C. The length of this sandpack was 12.24 cm. The porosity and intrinsic permeability to water were measured and found to be 0.329 and 5.84 Darcy, respectively. […] Two alcohol tracers were added to the water and 0.52 pore volumes of water containing these tracers were injected at 0.316 ml/min followed by several more pore volumes of water until the alcohols could no longer be detected in the effluent. […] The partition coefficients of each of these alcohols were determined by equilibrating samples containing in the range of 100 to 1,000 mg/l of both alcohols with equal volumes of water and PCE and measuring the alcohol concentrations in each phase using a gas chromatograph. […]
The separation of the two curves gives an unmistakable signal that the sand is contaminated with PCE. […] This value agrees with the value measured from a mass balance on the PCE within the experimental error of each of the measurements. The tracer curves were then numerically simulated using this value and the measured partition coefficients and these are the curves shown in FIG. 1. […]

With `ClC(Cl)=C(Cl)Cl` [PCE, tetrachloroethylene] the “residual PCE saturation, method of moments” value (from IPA/DMB tracer separation) was 0.189 and the “residual PCE saturation, inverse modeling” value (nonlinear least-squares regression) was 0.209.
